{"source": "the supplement of paper PMC4604168 (melanoma cell lines)", "note": "This is one part of the list. Repeats are few or missing, and single values can be far off.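 Imaging used 1,536-well plates; nuclei positive for cleaved PARP by antibody were divided by total DNA-stained nuclei to yield the apoptosis fraction. Doses for screening kept most cells viable, and cell lines differ markedly in resting and induced cleaved-PARP levels.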", "data": [{"system": "G361", "experiment": "cleaved PARP positive nuclei fraction relative to DMSO control; melanoma cells; higher = more apoptosis", "details": "library dose: low library concentration; 72 h", "units": {"cleaved PARP positive nuclei fraction": "%"}, "values": [{"smiles": "Cn1nnc2c(C(N)=O)ncn2c1=O", "note": "[temozolomide] + COc1cc(N2CCC(N3CCN(C)CC3)CC2)ccc1Nc1ncc(Cl)c(Nc2ccccc2S(=O)(=O)C(C)C)n1 [NVP-TAE684] (first compound 2 µM, partner dose 0.08 µM)", "cleaved PARP positive nuclei fraction": 137}, {"smiles": "O=C(CCCCCCC(=O)Nc1ccccc1)NO", "note": "[vorinostat] + COc1ccc(COc2ccc(Cc3cnc(N)nc3N)cc2OC)cc1 [GW2580] (first compound 0.08 µM, partner dose 1 µM)", "cleaved PARP positive nuclei fraction": 71.3}, {"smiles": "C#Cc1cccc(Nc2ncnc3cc(OCCOC)c(OCCOC)cc23)c1", "note": "[erlotinib] + Oc1cc(-c2nc(-c3ccccc3)[nH]c2-c2ccncc2)ccc1Cl [L779450] (first compound 0.8 µM, partner dose 0.2 µM)", "cleaved PARP positive nuclei fraction": 117}, {"smiles": "C#Cc1cccc(Nc2ncnc3cc(OCCOC)c(OCCOC)cc23)c1", "note": "[erlotinib] + N#Cc1c(O)c2c(-c3ccc(-c4ccccc4O)cc3)csc2[nH]c1=O [A769662] (first compound 0.8 µM, partner dose 2 µM)", "cleaved PARP positive nuclei fraction": 111}, {"smiles": "COCC[n+]1c2c(n(Cc3cnccn3)c1C)C(=O)c1ccccc1C2=O", "note": "+ COc1ccc(-c2ccc3c(N4CCOCC4)nc(N4C[C@@H](C)O[C@@H](C)C4)nc3n2)cc1CO [KU0063794] (first compound 0.0004 µM, partner dose 0.02 µM)", "cleaved PARP positive nuclei fraction": 92.9}, {"smiles": "COc1cc(Nc2ncc(F)c(Nc3ccc4c(n3)NC(=O)C(C)(C)O4)n2)cc(OC)c1OC", "note": "[Tamatinib] + O=C1NC(=O)/C(=C/c2ccc(-c3ccc(F)cc3O)o2)S1 [AS252424] (first compound 0.4 µM, partner dose 1 µM)", "cleaved PARP positive nuclei fraction": 113}]}]}
